In assay [1] the target is T1, T18-NudC (E. coli) (UniProt P32664).
T1 sequence: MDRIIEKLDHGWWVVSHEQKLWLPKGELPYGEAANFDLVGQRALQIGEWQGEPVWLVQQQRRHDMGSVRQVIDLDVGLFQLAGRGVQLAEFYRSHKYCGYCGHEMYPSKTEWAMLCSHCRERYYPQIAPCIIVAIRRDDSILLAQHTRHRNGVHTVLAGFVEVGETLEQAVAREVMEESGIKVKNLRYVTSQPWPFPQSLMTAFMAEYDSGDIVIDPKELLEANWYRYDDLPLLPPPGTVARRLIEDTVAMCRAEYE
The experiment in a line: two-hybrid; bacterial adenylate cyclase two-hybrid (BACTH) in E. coli BTH101; T18 and T25 fusions; colonies on LB agar with X-gal (40 µg/mL) and IPTG (0.5 mM) at 30°C, colour read after 2 days.

The target of assay [2] is T2, polyhistidine-tagged NudC (NudC-His) (E. coli) (UniProt P32664).
T2 sequence: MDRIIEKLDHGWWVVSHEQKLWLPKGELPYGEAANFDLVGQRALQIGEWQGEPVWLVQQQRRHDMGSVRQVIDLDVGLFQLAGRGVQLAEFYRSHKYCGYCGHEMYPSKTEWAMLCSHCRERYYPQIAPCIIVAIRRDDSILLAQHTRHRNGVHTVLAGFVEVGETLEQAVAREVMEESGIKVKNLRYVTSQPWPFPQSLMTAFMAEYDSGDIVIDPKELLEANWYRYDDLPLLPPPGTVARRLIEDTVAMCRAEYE
The experiment in a line: pull-down; NudC-His expressed in E. coli BL21(DE3)RIL; 10 µg RNase A added during the incubation with the Ni2+ sorbent; SDS-PAGE.

The target in assay [3] is T2, polyhistidine-tagged NudC (NudC-His) (E. coli). The experiment in a line: pull-down; 243 µg purified recombinant NudC-His added to 5 mg lysate of E. coli BL21(DE3)RIL (16°C or 37°C) or BW25113 (16°C); Ni2+-charged Chelating Sepharose, 1 h 30 min at 8°C, washes with 60 mM imidazole; SDS-PAGE, band near 70 kDa cut out and identified by mass spectrometry; only the target purified.

For assay [4] the target is unchanged. The experiment in a line: pull-down; NudC-His expressed in E. coli BL21(DE3)RIL (grown at 16°C or 37°C) or in Hfq-deficient JW4130 (16°C); 5 mg lysate on Ni2+-charged Chelating Sepharose, 1 h 30 min at 8°C, washes with 60 mM imidazole in lysis buffer B (pH 7.4, 100 mM NaCl); SDS-PAGE, band near 70 kDa cut out and identified by mass spectrometry.
In assay [5] the target is C-terminal region of NudC (NudC-C), T18 fusion (E. coli). The experiment in a line: two-hybrid; bacterial adenylate cyclase two-hybrid (BACTH) in E. coli BTH101; T18 and T25 fusions; colonies on LB agar with X-gal (40 µg/mL) and IPTG (0.5 mM) at 30°C, colour read after 2 days.
The target of assay [6] is N-terminal region of NudC (NudC-N), T18 fusion (E. coli). Described as above.

These are yes or no findings as the source states them, for the method shown. For some of these results: Binding can be weak; no strength is given. For some of these results: In cells and extracts the contact can be indirect. For some of these results: Sequences can lack the tags named with a protein.

Turning to “N-terminal region of CsdA (CsdA-N), T25 fusion (E. coli) (domain or fragment)”, the binding entry in assay [1] is on record as “binds”.

In the case of “C-terminal region of CsdA (CsdA-C), T25 fusion (E. coli) (domain or fragment)”, the binding entry in assay [1] is reported as “no binding”.

For “DEAD-box RNA helicase CsdA (from UniProt P0A9P6)”, the binding result in assay [2], in assay [3] and in assay [4] was “binds” in each case.

B1: CsdA-T25 (protein, UniProt P0A9P6 1-629)
chain: MAEFETTFADLGLKAPILEALNDLGYEKPSPIQAECIPHLLNGRDVLGMAQTGSGKTAAFSLPLLQNLDPELKAPQILVLAPTRELAVQVAEAMTDFSKHMRGVNVVALYGGQRYDVQLRALRQGPQIVVGTPGRLLDHLKRGTLDLSKLSGLVLDEADEMLRMGFIEDVETIMAQIPEGHQTALFSATMPEAIRRITRRFMKEPQEVRIQSSVTTRPDISQSYWTVWGMRKNEALVRFLEAEDFDAAIIFVRTKNATLEVAEALERNGYNSAALNGDMNQALREQTLERLKDGRLDILIATDVAARGLDVERISLVVNYDIPMDSESYVHRIGRTGRAGRAGRALLFVENRERRLLRNIERTMKLTIPEVELPNAELLGKRRLEKFAAKVQQQLESSDLDQYRALLSKIQPTAEGEELDLETLAAALLKMAQGERTLIVPPDAPMRPKREFRDRDDRGPRDRNDRGPRGDREDRPRRERRDVGDMQLYRIEVGRDDGVEVRHIVGAIANEGDISSRYIGNIKLFASHSTIELPKGMPGEVLQHFTRTRILNKPMNMQLLGDAQPHTGGERRGGGRGFGGERREGGRNFSGERREGGRGDGRRFSGERREGRAPRRDDSTGRRRFGGDA
As for B1, the binding entry is “no binding” in assay [5] and “binds” in assay [6].
